# PubChem BioAssay AID1259254, NCATS | 2017
# Assay: 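Genome-wide screen for genes that prevent DNA re-replication in cancer cells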 (primary screen)
# Cell system: human HCT116 colorectal cancer cells
# Knock-down reagent: single siRNA against human genes
# Time to read-out: 3 days
# Read-out: 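Nuclei stained with Hoechst and imaged; cell-cycle phase assigned by DNA content; G2 share scaled per plate, non-targeting siRNA 0%, GMNN siRNA 100%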
# Scale: G2 robust z-score: higher = more G2 cells, more excess DNA replication
# Hit rule: 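Active siRNAs have a G2 robust z of 5 or more median absolute deviations over the median, which in these data means about 38% or higher of GMNN control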
# Here is one part, drawn at random, of about 59,000 reagents. About 1,550 of them (2.6%) count as active. 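G2 share is only a proxy for re-replication; each gene was hit by three separate siRNAs, and active genes were retested.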 Reagents against one gene are numbered here. Further read-outs or replicates are left out here. The record does not give: the amount of reagent.
target,siRNA no.,G2 robust z-score,activity call
LOC644504 (retired record),1,-0.0142,inactive
LOC644504 (retired record),2,1.42,inactive
LOC644504 (retired record),3,0.0255,inactive
ZDHHC2 (zDHHC palmitoyltransferase 2),1,2.3,inactive
ZDHHC2 (zDHHC palmitoyltransferase 2),2,1.28,inactive
ZDHHC2 (zDHHC palmitoyltransferase 2),3,-0.793,inactive
ABITRAM (actin binding transcription modulator),1,-0.606,inactive
ABITRAM (actin binding transcription modulator),2,1.12,inactive
ABITRAM (actin binding transcription modulator),3,-0.304,inactive
CTPS2 (CTP synthase 2),1,-1.2,inactive
CTPS2 (CTP synthase 2),2,-0.162,inactive
CTPS2 (CTP synthase 2),3,-0.827,inactive
DPEP3 (dipeptidase 3),1,-1.14,inactive
DPEP3 (dipeptidase 3),2,-0.504,inactive
DPEP3 (dipeptidase 3),3,-0.0912,inactive
REEP6 (receptor accessory protein 6),1,-0.939,inactive
REEP6 (receptor accessory protein 6),2,0.619,inactive
REEP6 (receptor accessory protein 6),3,0.168,inactive
WDR45B (WD repeat domain 45B),1,0.256,inactive
WDR45B (WD repeat domain 45B),2,0.575,inactive
WDR45B (WD repeat domain 45B),3,0.51,inactive
FAM110A (family with sequence similarity 110 member A),1,-0.486,inactive
FAM110A (family with sequence similarity 110 member A),2,-1.06,inactive
FAM110A (family with sequence similarity 110 member A),3,0.0599,inactive
PTPN22 (protein tyrosine phosphatase non-receptor type 22),1,0.295,inactive
PTPN22 (protein tyrosine phosphatase non-receptor type 22),2,-1.24,inactive
PTPN22 (protein tyrosine phosphatase non-receptor type 22),3,-0.379,inactive
CCDC138 (coiled-coil domain containing 138),1,2.31,inactive
CCDC138 (coiled-coil domain containing 138),2,0.0321,inactive
CCDC138 (coiled-coil domain containing 138),3,1.32,inactive
PLEK (pleckstrin),1,1.32,inactive
PLEK (pleckstrin),2,7.13,active
PLEK (pleckstrin),3,-0.5,inactive
CHRNB4 (cholinergic receptor nicotinic beta 4 subunit),1,1.87,inactive
CHRNB4 (cholinergic receptor nicotinic beta 4 subunit),2,1.42,inactive
CHRNB4 (cholinergic receptor nicotinic beta 4 subunit),3,-0.267,inactive
SEMA7A (semaphorin 7A (JohnMiltonHagen blood group)),1,-0.314,inactive
SEMA7A (semaphorin 7A (JohnMiltonHagen blood group)),2,-1.3,inactive
SEMA7A (semaphorin 7A (JohnMiltonHagen blood group)),3,1.64,inactive
GARIN2 (golgi associated RAB2 interactor family member 2),1,1.38,inactive
GARIN2 (golgi associated RAB2 interactor family member 2),2,-0.799,inactive
GARIN2 (golgi associated RAB2 interactor family member 2),3,1.11,inactive
ABCG4 (ATP binding cassette subfamily G member 4),1,0.627,inactive
ABCG4 (ATP binding cassette subfamily G member 4),2,3.23,inactive
ABCG4 (ATP binding cassette subfamily G member 4),3,-0.958,inactive
TEAD3 (TEA domain transcription factor 3),1,0.976,inactive
TEAD3 (TEA domain transcription factor 3),2,-0.428,inactive
TEAD3 (TEA domain transcription factor 3),3,-0.721,inactive
AMDHD2 (amidohydrolase domain containing 2),1,-0.758,inactive
AMDHD2 (amidohydrolase domain containing 2),2,-0.0426,inactive
AMDHD2 (amidohydrolase domain containing 2),3,-0.701,inactive
TMEM53 (transmembrane protein 53),1,-0.589,inactive
TMEM53 (transmembrane protein 53),2,2.23,inactive
TMEM53 (transmembrane protein 53),3,-1.01,inactive
CRIM1 (cysteine rich transmembrane BMP regulator 1),1,-0.735,inactive
CRIM1 (cysteine rich transmembrane BMP regulator 1),2,2.22,inactive
CRIM1 (cysteine rich transmembrane BMP regulator 1),3,-0.334,inactive
OAZ3 (ornithine decarboxylase antizyme 3),1,-1.02,inactive
OAZ3 (ornithine decarboxylase antizyme 3),2,0.29,inactive
OAZ3 (ornithine decarboxylase antizyme 3),3,-0.415,inactive
SPRY3 (sprouty RTK signaling antagonist 3),1,-0.958,inactive
SPRY3 (sprouty RTK signaling antagonist 3),2,0.0552,inactive
SPRY3 (sprouty RTK signaling antagonist 3),3,-1.16,inactive
SLC6A20,1,-0.796,inactive
SLC6A20,2,-0.332,inactive
SLC6A20,3,4.55,inactive
CNGA1 (cyclic nucleotide gated channel subunit alpha 1),1,-1.16,inactive
CNGA1 (cyclic nucleotide gated channel subunit alpha 1),2,-0.413,inactive
CNGA1 (cyclic nucleotide gated channel subunit alpha 1),3,0.775,inactive

Records above whose gene name begins with O or o:
target,siRNA no.,G2 robust z-score,activity call
OAZ3 (ornithine decarboxylase antizyme 3),1,-1.02,inactive
OAZ3 (ornithine decarboxylase antizyme 3),2,0.29,inactive
OAZ3 (ornithine decarboxylase antizyme 3),3,-0.415,inactive
